This assay concerns the target FimA, the primary building block of type 1 fimbriae of E. coli TOP10 (E. coli (endogenous in E. coli TOP10)) (UniProt P04128). Kind of assay: cryo-EM structure; type 1 fimbriae extracted from E. coli TOP10; FimA identified by mass spectrometry; 2.6 Å.

No constants are given. Whether binding was seen depends on the method and setting. Some entries that bind do so weakly or less than the wild type.

B1: FimA, the primary building block of type 1 fimbriae of E. coli TOP10 (protein, UniProt P04128 24-182)
chain: AATTVNGGTVHFKGEVVNAACAVDAGSVDQTVQLGQVRTASLAQEGATSSAVGFNIQLNDCDTNVASKAAVAFLGTAIDAGHTNVLALQSSAAGSATNVGVQILDRTGAALTLDGATFSSETTLNNGTNTIPFQARYFATGAATPGAANADATFKVQYQ
Turning to B1, the binding entry is on record as “binds”.

These data come from publication PMC12212870.
